Data from publication PMC10435519.
No constants are given. Whether binding was seen depends on the method and setting. In cells and extracts the contact can be indirect. Some entries that bind do so weakly or less than the wild type.

Chains of the proteins cited; added tags and fusions are not shown.
UniProt Q8BTW9: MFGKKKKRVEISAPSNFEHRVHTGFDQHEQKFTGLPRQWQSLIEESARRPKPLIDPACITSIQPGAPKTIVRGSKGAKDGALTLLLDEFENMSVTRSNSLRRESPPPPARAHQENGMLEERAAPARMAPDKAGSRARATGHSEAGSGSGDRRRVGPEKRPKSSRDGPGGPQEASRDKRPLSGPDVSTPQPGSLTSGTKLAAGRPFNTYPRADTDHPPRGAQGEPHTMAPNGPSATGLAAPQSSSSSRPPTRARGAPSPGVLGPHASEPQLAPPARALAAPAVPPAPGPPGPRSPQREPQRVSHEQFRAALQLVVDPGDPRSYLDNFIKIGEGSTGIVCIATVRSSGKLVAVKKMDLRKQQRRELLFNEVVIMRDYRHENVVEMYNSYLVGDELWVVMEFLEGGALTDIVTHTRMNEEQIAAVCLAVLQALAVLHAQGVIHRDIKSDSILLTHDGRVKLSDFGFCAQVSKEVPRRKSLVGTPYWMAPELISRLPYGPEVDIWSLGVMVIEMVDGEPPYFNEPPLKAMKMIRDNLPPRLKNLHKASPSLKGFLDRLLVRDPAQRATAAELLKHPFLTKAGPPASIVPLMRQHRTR

Target: T1, Peroxisome proliferator-activated receptor alpha (PPARα) (mouse (endogenous in mouse primary hepatocytes)) (UniProt P23204)
T1 sequence: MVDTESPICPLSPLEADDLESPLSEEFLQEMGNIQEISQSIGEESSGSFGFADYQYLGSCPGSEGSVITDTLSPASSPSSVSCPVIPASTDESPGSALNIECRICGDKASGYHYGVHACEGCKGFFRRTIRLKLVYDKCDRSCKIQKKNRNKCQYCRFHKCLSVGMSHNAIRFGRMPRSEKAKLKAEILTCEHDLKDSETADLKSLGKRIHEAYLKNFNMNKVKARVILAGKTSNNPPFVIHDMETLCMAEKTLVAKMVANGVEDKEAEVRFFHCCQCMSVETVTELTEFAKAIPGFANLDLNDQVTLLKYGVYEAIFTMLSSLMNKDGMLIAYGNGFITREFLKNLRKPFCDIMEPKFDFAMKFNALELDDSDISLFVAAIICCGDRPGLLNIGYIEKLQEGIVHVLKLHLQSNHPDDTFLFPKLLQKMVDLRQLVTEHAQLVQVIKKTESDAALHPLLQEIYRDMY
Experiment: co-IP; lysates (200 μg) of mouse primary hepatocytes infected with AdLacZ, AdPAK4 or AdPAK4 S474A; immunoprecipitated with antibodies against NCoR1 or PPARα, immunoblotted

binding: binds
Substance: p21-activated kinase 4 (PAK4) (from UniProt Q8BTW9 1-593) (enzyme)
